Source: patent publication US20250152387A1, “COBALT-CHROMIUM ALLOY STENT AND DRUG ELUTING STENT” (AmsinoMed Medical Co., Ltd, priority 2022, published 2025)
At least one compound was matched to its structure with a doubt left.

Tested on: vascular smooth muscle cells (HASMCs)
Assay: CCK-8 cell viability assay on vascular smooth muscle cells
Format: cell-based
Details: different concentrations, 24 h and 48 h
Method: The range of drug concentrations at which ATO and TAC were friendly to vascular smooth muscle cell viability was determined at the cellular level.
The changes in the cell viability of vascular smooth muscle cells (HASMCs) under the action of ATO, TAC and rapamycin (RAP) at different concentrations for 24 h and 48 h were studied by CCK-8 cell viability assay, respectively.

CO[C@H]1C[C@@H]2CC[C@@H](C)[C@@](O)(O2)C(=O)C(=O)N2CCCC[C@H]2C(=O)O[C@H]([C@H](C)C[C@@H]2CC[C@@H](O)[C@H](OC)C2)CC(=O)[C@H](C)/C=C(\C)[C@@H](O)[C@@H](OC)C(=O)[C@H](C)C[C@H](C)/C=C/C=C/C=C/1C [RAP, rapamycin]
effect on the viability of vascular smooth muscle cells: no significant inhibitory effect
